Test results published in patent EP0607129B1, “METHYLPIPERAZINOAZEPINE DERIVATIVES, THEIR PREPARATION AND USE” ("THERABEL RESEARCH SA/NV", priority 1991, dated 1993).

System: récepteurs muscariniques
Parameters: species or system rat CFY
Conditions: 1,5 nM (³H) QNB; rat brain homogenate without cerebellum; 25°C, 60 minutes; non-specific binding with atropine 10⁻⁵M; test concentration not given

Q: For `O=C(CCCN1CCC(O)(c2ccc(Cl)cc2)CC1)c1ccc(F)cc1` [Halopéridol, reference compound], which “Inhibition, % (binding de ³H QNB)” value is on record?
A: 0%
